According to patent US9079895B2, “Morpholino compounds, uses and methods” (University of Dundee, priority 2012, dated 2015):
At least one structure is not confirmed: it was looked up by name or label, or the drawing left a doubt.

Chains of the proteins cited; added tags and fusions are not shown. Lines headed by an entry give the natural chain unless they say otherwise; changes in a name come on top. Residues count along the entry.
UniProt P21918, whole entry: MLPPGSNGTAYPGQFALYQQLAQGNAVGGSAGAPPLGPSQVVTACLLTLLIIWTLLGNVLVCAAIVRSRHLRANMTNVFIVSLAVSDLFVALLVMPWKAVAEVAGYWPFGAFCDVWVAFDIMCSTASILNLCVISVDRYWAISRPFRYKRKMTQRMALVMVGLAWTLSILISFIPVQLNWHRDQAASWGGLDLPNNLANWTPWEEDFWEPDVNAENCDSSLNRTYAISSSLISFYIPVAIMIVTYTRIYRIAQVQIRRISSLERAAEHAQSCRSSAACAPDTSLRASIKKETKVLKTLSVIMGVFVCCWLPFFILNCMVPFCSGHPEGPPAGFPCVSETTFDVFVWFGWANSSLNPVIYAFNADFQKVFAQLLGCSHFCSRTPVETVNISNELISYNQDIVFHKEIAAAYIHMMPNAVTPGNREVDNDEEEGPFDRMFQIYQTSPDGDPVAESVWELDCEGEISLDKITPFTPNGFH
UniProt P46098, 24-478: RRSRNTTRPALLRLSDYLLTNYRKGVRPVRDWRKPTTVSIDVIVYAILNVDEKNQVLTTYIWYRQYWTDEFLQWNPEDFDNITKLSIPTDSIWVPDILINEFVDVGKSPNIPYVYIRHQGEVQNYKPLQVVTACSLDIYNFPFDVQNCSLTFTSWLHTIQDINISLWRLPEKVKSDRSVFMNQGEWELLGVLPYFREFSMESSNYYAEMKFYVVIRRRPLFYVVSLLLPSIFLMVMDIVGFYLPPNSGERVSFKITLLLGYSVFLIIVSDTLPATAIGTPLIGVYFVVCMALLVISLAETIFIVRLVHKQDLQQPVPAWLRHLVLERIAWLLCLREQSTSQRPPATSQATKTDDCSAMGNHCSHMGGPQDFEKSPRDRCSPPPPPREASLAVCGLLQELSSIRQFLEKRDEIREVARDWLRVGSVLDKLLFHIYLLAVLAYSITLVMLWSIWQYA
UniProt P50406, whole entry: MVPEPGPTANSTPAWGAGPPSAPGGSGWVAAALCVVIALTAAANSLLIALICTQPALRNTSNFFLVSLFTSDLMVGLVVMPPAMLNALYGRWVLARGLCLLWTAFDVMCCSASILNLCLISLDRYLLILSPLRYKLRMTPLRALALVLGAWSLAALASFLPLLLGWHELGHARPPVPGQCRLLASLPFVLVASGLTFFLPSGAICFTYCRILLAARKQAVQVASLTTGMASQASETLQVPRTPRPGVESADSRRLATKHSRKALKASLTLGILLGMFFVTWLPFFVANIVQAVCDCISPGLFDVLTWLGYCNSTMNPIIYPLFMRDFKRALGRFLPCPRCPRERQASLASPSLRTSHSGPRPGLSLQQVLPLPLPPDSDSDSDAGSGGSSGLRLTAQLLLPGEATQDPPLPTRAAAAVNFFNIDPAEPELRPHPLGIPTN
UniProt P35368, whole entry: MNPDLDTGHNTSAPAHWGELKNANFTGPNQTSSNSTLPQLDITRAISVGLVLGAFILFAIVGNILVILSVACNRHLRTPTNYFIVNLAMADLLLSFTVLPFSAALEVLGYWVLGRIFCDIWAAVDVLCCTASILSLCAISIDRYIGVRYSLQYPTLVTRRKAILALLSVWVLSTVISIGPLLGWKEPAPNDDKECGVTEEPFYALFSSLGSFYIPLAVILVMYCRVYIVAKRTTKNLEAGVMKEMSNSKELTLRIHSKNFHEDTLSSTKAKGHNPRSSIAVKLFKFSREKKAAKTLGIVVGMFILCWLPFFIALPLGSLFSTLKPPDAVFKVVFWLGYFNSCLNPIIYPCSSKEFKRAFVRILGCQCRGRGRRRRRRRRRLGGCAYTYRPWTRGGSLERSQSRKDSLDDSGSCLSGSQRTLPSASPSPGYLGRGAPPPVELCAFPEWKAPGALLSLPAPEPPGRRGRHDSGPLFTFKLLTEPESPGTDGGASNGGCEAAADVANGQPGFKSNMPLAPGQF
UniProt P34969, whole entry: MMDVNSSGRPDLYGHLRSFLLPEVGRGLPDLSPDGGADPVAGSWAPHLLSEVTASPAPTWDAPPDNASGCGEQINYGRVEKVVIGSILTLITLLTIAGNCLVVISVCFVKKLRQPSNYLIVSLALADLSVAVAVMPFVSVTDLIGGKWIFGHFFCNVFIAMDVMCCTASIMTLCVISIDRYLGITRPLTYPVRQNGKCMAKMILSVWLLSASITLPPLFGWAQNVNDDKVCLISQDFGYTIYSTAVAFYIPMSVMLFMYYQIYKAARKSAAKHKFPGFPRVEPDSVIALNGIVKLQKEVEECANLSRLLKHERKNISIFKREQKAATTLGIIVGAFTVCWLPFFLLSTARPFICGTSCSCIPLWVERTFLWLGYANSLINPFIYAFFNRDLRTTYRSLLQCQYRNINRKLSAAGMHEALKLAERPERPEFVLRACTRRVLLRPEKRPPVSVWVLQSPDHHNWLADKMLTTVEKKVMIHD
UniProt Q13639: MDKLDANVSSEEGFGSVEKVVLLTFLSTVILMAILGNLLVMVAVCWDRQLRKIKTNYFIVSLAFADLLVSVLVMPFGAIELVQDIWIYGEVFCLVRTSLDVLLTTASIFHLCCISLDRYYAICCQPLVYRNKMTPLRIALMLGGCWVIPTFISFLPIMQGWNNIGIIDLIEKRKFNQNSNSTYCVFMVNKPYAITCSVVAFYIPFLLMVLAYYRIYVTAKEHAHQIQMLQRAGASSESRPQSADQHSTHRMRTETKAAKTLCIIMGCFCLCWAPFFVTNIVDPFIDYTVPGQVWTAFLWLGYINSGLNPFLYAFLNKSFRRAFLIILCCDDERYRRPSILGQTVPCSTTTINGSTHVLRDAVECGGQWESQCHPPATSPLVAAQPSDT
UniProt P14416, whole entry, species assumed: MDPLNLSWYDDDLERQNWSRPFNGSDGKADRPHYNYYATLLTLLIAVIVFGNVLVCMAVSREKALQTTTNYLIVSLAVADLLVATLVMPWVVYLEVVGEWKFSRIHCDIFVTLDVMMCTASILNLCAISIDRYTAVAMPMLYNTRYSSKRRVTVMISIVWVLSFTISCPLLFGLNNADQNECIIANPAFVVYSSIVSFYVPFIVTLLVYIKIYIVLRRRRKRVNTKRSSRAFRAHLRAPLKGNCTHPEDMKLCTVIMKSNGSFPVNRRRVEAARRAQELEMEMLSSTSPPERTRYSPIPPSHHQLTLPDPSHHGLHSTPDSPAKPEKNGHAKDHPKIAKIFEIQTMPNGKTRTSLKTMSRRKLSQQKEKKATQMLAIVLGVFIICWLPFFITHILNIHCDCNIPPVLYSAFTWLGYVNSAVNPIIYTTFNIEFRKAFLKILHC
UniProt P47898, whole entry: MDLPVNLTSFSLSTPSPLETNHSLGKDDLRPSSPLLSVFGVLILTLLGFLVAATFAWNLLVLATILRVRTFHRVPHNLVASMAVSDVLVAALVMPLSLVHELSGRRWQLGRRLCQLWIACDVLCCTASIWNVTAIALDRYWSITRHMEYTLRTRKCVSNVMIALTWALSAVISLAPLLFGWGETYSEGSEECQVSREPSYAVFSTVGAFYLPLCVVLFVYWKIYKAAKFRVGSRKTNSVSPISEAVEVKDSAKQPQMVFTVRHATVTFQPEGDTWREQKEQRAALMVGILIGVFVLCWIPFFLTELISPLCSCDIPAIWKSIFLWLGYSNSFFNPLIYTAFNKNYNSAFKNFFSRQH
UniProt P28566: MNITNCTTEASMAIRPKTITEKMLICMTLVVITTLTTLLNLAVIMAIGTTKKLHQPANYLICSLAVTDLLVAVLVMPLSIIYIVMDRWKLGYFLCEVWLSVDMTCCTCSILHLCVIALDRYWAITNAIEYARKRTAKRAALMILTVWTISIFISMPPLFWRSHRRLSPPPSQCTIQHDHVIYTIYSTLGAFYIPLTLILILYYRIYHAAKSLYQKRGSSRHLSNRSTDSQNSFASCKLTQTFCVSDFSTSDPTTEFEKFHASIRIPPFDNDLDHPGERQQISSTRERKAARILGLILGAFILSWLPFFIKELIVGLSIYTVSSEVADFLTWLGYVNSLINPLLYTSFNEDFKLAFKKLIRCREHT
UniProt P35462, whole entry, species assumed: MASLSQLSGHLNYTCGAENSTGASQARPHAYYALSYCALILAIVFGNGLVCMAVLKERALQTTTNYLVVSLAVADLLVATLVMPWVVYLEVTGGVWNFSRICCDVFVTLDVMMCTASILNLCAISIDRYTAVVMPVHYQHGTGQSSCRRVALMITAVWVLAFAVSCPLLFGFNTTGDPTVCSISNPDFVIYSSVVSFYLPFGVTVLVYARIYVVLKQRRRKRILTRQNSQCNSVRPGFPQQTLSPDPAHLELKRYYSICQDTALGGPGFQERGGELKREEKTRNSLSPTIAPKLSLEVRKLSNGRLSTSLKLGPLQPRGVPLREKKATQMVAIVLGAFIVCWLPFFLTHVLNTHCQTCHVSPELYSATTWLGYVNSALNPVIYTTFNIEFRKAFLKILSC

How the values were obtained:
Parameters in all cases: key: “—” indicates that a binding interaction was not detected
Details in all cases: average of at least two experiments
dopamine D5 receptor = dopamine D5 receptor (Homo sapiens (Human), UniProt P21918); test: Secondary radioligand binding assay, D5
Protocol: (§1) 1. Secondary Radioligand Binding Assays
(§2) The detailed experimental protocols for the radioligand and functional receptor assays are available on the NIMH PDSP website at http://pdsp.med.unc.edu/UNC-CH %20Protocol %20Book.pdf.
(§3) Radioligand is diluted to five times the assay concentration (see Table 18) in Standard Binding Buffer. Typically, the assay concentration of radioligand is a value between one half the KD and the KD of a particular radioligand at its target. 50 μl aliquots of radioligand are dispensed into the wells of a 96-well plate containing 100 μl of Standard Binding Buffer. Then, duplicate 50 μl aliquots of the test and reference compound dilutions are added.
(§4) The 250 μl reactions are incubated at room temperature and shielded from light (to prevent photolysis of light-sensitive ligands) for 1.5 hours, then harvested by rapid filtration onto Whatman GF/B glass fiber filters pre-soaked with 0.3% polyethyleneimine using a 96-well Brandel harverster. Four rapid 500 μl washes are performed with chilled Standard Binding Buffer to reduce non-specific binding. Filters are placed in 6 ml scintillation tubes and allowed to dry overnight. […] The tubes are capped, labeled, and counted by liquid scintillation counting. […] The filter mats are dried, then scintillant is melted onto the filters and the radioactivity retained on the filters is counted in a Microbeta scintillation counter. […]

5HT3 receptor = 5HT3 receptor (Homo sapiens (Human), UniProt P46098); test: Secondary radioligand binding assay, 5HT3;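 further: radioligand competition binding on membranes from transfected cell lines, 1.5 h incubation at room temperature, filter-retained radioactivity measured by liquid scintillation counting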
5HT6 receptor = 5HT6 receptor (Homo sapiens (Human), UniProt P50406); test: Secondary radioligand binding assay, 5HT6;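 further: competition displacement of radioligand from membranes of transfected cell lines expressing the receptor, 1.5 h at room temperature, bound radioactivity counted by scintillation after filtration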
[1] = biological target: Alpha1B adrenergic receptor (Homo sapiens (Human), UniProt P35368); test: Secondary radioligand binding assay, Alpha1B
Description: 1. Secondary Radioligand Binding Assays The detailed experimental protocols for the radioligand and functional receptor assays are available on the NIMH PDSP website at http://pdsp.med.unc.edu/UNC-CH %20Protocol %20Book.pdf. Raw data (dpm) representing total radioligand binding (i.e. specific+non-specific binding) are plotted as a function of the logarithm of the molar concentration of the competitor (i.e. test or reference compound). […] C. Adrenergic Receptors: α1A, α1B, α2A, α2B, α2C, β1, β2, β3 Assay Buffers: For α1 receptors, α1 Binding Buffer (20 mM Tris-HCl, 145 mM NaCl, pH 7.4); for α2 receptors, α2 Binding Buffer (50 mM Tris-HCl, 5 mM MgCl2, pH 7.7); for β receptors, β Binding Buffer (50 mM Tris-HCl, 3 mM MnCl2, pH 7.7) Membrane Fraction Source: Transiently or stably transfected cell lines (e.g. HEK293, COS, CHO, NIH3T3) Protocol adapted from Arango et al. […] (1990), Gen. Psychiatry, 47: 1038-1047. The method is carried out in the manner described for the serotonin receptor assay above, except where described below. Eleven dilutions (5× assay concentration) of the test and reference (see Table 20) compounds are prepared in the appropriate buffer by serial dilution, as previously described. Radioligand is diluted to five times the assay concentration (see Table 21) in the appropriate buffer. […]

5HT7 receptor = 5HT7 receptor (Homo sapiens (Human), UniProt P34969); test: Secondary radioligand binding assay, 5HT7;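 further: competition of test compound with radioligand for binding to membranes from transfected cell lines, 1.5 h incubation at room temperature, filter-bound radioactivity read by liquid scintillation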
5HT4 receptor = 5HT4 receptor (Homo sapiens (Human), UniProt Q13639); test: Secondary radioligand binding assay, 5HT4
Protocol: 1. Secondary Radioligand Binding Assays The detailed experimental protocols for the radioligand and functional receptor assays are available on the NIMH PDSP website at http://pdsp.med.unc.edu/UNC-CH %20Protocol %20Book.pdf. Assay Buffer: Standard Binding Buffer (50 mM Tris-HCl, 10 mM MgCl2, 1 mM EDTA, pH 7.4) Membrane Fraction Source: Transiently or stably transfected cell lines (e.g., HEK293, COS, CHO, NIH3T3) Protocol adapted from Roth et al. (1986), J. Pharmacol. Exp. Ther., 238(2): 480-485; and Roth et al. (1994), J. Pharmacol. Exp. Ther., 268(3): 1403-1410. […] A similar stock of a reference compound (positive control) is also prepared. […] Radioligand is diluted to five times the assay concentration (see Table 18) in Standard Binding Buffer. Typically, the assay concentration of radioligand is a value between one half the KD and the KD of a particular radioligand at its target. […] The tubes are capped, labeled, and counted by liquid scintillation counting. For higher throughput assays, bound radioactivity is harvested onto 0.3% polyethyleneimine-treated, 96-well filter mats using a 96-well Filtermate harvester. The filter mats are dried, then scintillant is melted onto the filters and the radioactivity retained on the filters is counted in a Microbeta scintillation counter. […]

dopamine D2 receptor = dopamine D2 receptor (Homo sapiens (Human), UniProt P14416); test: Secondary radioligand binding assay, D2
Protocol: as §1, §2, §3, §4

5HT5 receptor = 5HT5 receptor (Homo sapiens (Human), UniProt P47898); test: Secondary radioligand binding assay, 5HT5;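 further: competitive radioligand displacement on membranes from transfected cell lines, incubated at room temperature in the dark, filter-retained radioactivity counted by liquid scintillation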
5HT1e receptor = 5HT1e receptor (Homo sapiens (Human), UniProt P28566); test: Secondary radioligand binding assay, 5HT1e;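 further: competition binding against a radioligand on membranes from transfected cell lines, 1.5 h at room temperature, bound radioactivity counted by liquid scintillation after filtration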
dopamine D3 receptor = dopamine D3 receptor (Homo sapiens (Human), UniProt P35462); test: Secondary radioligand binding assay, D3
Protocol: as §1, §2, §3, §4

COc1cccc(OC[C@H]2CN(CCN3CCc4ccccc43)CCO2)c1 [Compound 25r, (R)-4-(2-(Indolin-1-yl)ethyl)-2-((3-methoxyphenoxy)methyl)morpholine]
—: Ki D5 (dopamine D5 receptor) | Ki 5HT3 (5HT3 receptor) | Ki 5HT6 (5HT6 receptor) | Ki Alpha1B [1] | Ki 5HT7 (5HT7 receptor) | Ki 5HT4 (5HT4 receptor) | Ki D2 (dopamine D2 receptor) | Ki 5HT5 (5HT5 receptor) | Ki 5HT1e (5HT1e receptor) | Ki D3 (dopamine D3 receptor)
